Over roughly 33,000 sequences, “E-score (-0.5 to 0.5)” has its median near -0.0034; the highest 2% begin near 0.25. The list shows a part of the results.
target: T1, Yap3 (UniProt P38749); assay: PBM E-score (8-mer binding enrichment) (E-score (-0.5 to 0.5)); higher = stronger / more preferred TF binding; conditions: protein concentration: 100 nM; construct: GST-full length
T1 sequence: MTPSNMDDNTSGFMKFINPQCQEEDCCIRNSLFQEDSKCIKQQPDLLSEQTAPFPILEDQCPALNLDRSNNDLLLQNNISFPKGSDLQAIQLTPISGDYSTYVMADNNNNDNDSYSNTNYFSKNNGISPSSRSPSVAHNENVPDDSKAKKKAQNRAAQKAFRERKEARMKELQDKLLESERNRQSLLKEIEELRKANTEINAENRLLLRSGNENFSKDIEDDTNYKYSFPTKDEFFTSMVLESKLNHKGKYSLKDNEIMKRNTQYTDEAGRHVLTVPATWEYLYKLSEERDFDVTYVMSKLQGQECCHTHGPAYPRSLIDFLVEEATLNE
Method in brief: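 Masliner-normalised scans of fluorescent anti-GST signal were the basis for scoring. That signal came from GST-tagged yeast transcription factors applied at about 100-200 nM to double-stranded universal all-10-mer Agilent arrays on fresh or once-stripped slides. Each ungapped eight-base word, pooled with its reverse complement, received an E-score from the Universal PBM Analysis Suite.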

Sequence | PBM E-score
ACACCGCC | -0.166
CCTTATTC | 0.0232
CTGAAAAA | -0.195
AGAACGGG | -0.0233
ACCTGCAC | -0.0683
GGGGGAAC | -0.35
CATATCGC | 0.0128
CCCGAGAC | -0.246
AAACCACG | -0.0371
GGTTACAC | -0.122
GAAATTGC | 0.101
ACACTCGC | 0.215
AGGACTGA | -0.104
AGTCATTA | 0.0463
CGCTAAGC | -0.0259
ACAGAGAC | 0.0186
GACATCCA | -0.0886
GAGTTGGA | -0.00484
GAGGCAGC | -0.144
GCCAATCA | -0.169
CGGTGGTA | -0.0741
GTAGGTCA | -0.236
CGTGATAC | 0.00869
AATGCGGC | -0.00012
GGATCTCA | -0.109

Another view of part of the listing above.
Sequence,PBM E-score
AGGACTGA,-0.104
ACAGAGAC,0.0186

Additional results:

Sequence | PBM E-score
GTATGGGA | -0.213
ATTTGACG | 0.138
GAACCCAA | -0.132
ATCAGATG | -0.0756
CCTCCCTC | -0.0218
GCAACTCC | -0.188
TAGTTCGA | 0.0925
AACGGGAT | -0.00343
CTATAAAC | 0.11
CTACGCCC | -0.185
CGTTTTAC | 0.0284
ACCCTTTG | -0.252
CCACCAGG | -0.334
AGTAGGGC | -0.0166
ATGGTAGG | -0.0663
ATTGTGCC | 0.0299
CAAAGTCG | 0.036
AGTGGTAG | -0.111
GCGCGAAC | 0.045
CTTAGGGC | -0.25
CAGTACGA | 0.158
CTAGATTA | 0.146
ACCGAAAC | 0.00664
TCCAACGA | -0.112
AAGTGCAC | 0.214

Sequence | PBM E-score
CCTGTCTC | -0.174
AATAATAC | 0.296
AGCCAGAG | -0.124
GACGTAGA | -0.266
CAATGTAG | -0.0631
AGGTCACC | -0.229
ACCCAGCT | -0.093
AGATCATG | 0.0443
ACGCCGGG | -0.242
AGTCATGA | 0.128
CTCCGTAC | 0.047
CGATAAAG | 0.0668
ACACGCTA | 0.0954
GCGACTTA | -0.116
ATTGATTA | 0.23
GTATAATA | 0.287
ATTAAATC | 0.211
ACGTCGCC | -0.105
ACCGGGGG | -0.374
GTCCTAAA | 0.0256
GTGAGTAA | 0.154
AGGGCATA | -0.0468
CGTGTTAC | 0.045
TACAGGCA | 0.00367
GTGTACAC | 0.0972

Sequence | PBM E-score
AATTGCAT | 0.0837
ATCCTCTG | -0.00518
CTAGATAA | 0.131
CCGCGCTA | 0.137
ACATCTGA | -0.171
ATATCAAT | 0.268
CGAAGTAA | 0.0985
ATGGCCCC | -0.384
GCGATACA | -0.0743
ACGTGTAT | 0.115
AACACTAG | 0.151
ATACGGCA | 0.0572
AGTAGGAT | -0.0021
AAATTTCC | 0.125
TTCCAAAA | 0.0119
CGCGGGTA | -0.0311
AACGACTG | 0.117
ATACTAGA | 0.177
CACCTACG | -0.0777
AGCTGCAT | -0.132
ATGAGTTA | -0.0603
AGGGATGA | -0.0984
CAGAATTA | -0.00899
CAGTGGCA | -0.142
GTTCCATA | 0.0853

Sequence | PBM E-score
ACAAATGT | 0.118
GAGGAAGA | 0.0109
CAGCAAGG | -0.0939
ATTCACTA | 0.104
GAGCGGAC | -0.287
TATATCGA | 0.241
GATGTGGC | -0.0842
CTCGCGTA | 0.0913
CCAGGACC | -0.166
GTGTACCA | 0.0474
ATAGGGTC | -0.096
AGGTAGAC | -0.0382
CGAAAGCA | 0.0948
CATTGTCA | 0.0809
GACTTCTC | -0.0144
TGCACCCA | 0.00496
ACCATTAC | 0.162
CCAACCCC | -0.179
CAACGTGG | -0.125
ATCCATGC | 0.0381
CCAACGTA | -0.0112
CCCTGAGA | -0.173
CGAGGCCC | -0.191
GGACAACC | -0.128
CTAACGAC | -0.0383

Sequence | PBM E-score
ACTGTGCC | -0.136
AAGATCCG | -0.178
GGTTTAGA | 0.0782
ATCTGGGG | -0.226
CGTAAGAC | 0.0141
GCGTCCCA | -0.121
AAAGCCCT | -0.254
TAGTATAA | 0.131
AACCTCCG | -0.132
TACGCAGA | 0.16
TGAAACAA | 0.106
ATCACCTC | 0.0289
GTAGGGGA | -0.251
ATGCCAAT | 0.0124
AGCGTCCC | -0.134
GAATAAAC | 0.104
ACGAGGAA | 0.136
GCGTGGTA | 0.0194
ACGCGACT | -0.121
GCAGACCA | -0.126
ATCTCGGG | -0.0623
GCACTTTA | 0.0421
ACGCGACA | 0.219
AAGCAGAG | 0.0381
ACTCCTGC | -0.0436

An excerpt of these results, as tab-separated lines.
Sequence	PBM E-score
ACACTCGC	0.215
CTACGCCC	-0.185
AGTCATGA	0.128
AAAGCCCT	-0.254

Following part

Sequence | PBM E-score
GTTTACCA | 0.107
ATCGATAG | 0.0603
CATCTTAG | 0.0578
ATGGTTAA | 0.0266
CTTGTTAC | 0.0269
ATGCGACC | 0.0864
CGACTACC | -0.172
GCATCCAA | -0.025
AAGGCCTT | -0.18
CAATACGG | -0.0587
CCGTCGCA | 0.0618
AATTTATA | 0.294
CATGAAGG | 0.0231
ACTAGCTC | 0.00178
CCGTCTCA | -0.0611
GCGCGTCA | 0.131
ATTGGAGG | -0.144
CATTCGGG | -0.11
AGCAAGTG | -0.0827
AGCTGATG | 0.161
CCGGACTC | -0.0808
CAGTGCGA | 0.0242

Source: the supplement of paper PMC3334620
